Counter-ions that a name gives are not always drawn.
Test system: MDA-MB-435 human melanoma cells
Experiment: In vitro chemosensitization, XTT
Assay type: cell-based
Conditions: 30 uM Imatinib Mesylate; FIG. 25B

SMILES: Cc1ccc(NC(=O)c2ccc(CN3CCN(C)CC3)cc2)cc1Nc1nccc(-c2cccnc2)n1 [Imatinib Mesylate]
- fold sensitization to TAXOTERE: ~4 fold
